According to PubChem BioAssay AID504834 (National Center for Advancing Translational Sciences (NCATS), 2011):
Among all 320,000 compounds or so, about 22,000 (6.9%) were called active. This list was built around the results that the source calls inconclusive (neither active nor inactive); the mix of calls is not that of the screen. Calls follow the shape of the dose curve; as a rule, active = well fitted inhibition curve with a large enough effect; inconclusive = small, poorly fitted or top-dose-only effect, or another doubt; inactive = no such curve, though single readings can be large or run the other way. Potencies beside an inconclusive call are fits to weak or partial responses and may not hold up.
% is scaled to controls: 0 for no effect and ±100 for the full control effect; potency is read from the fitted curve at half-maximal effect.

Test: Primary qHTS for delayed death inhibitors of the malarial parasite plastid, 96 hour incubation
Conditions: P. falciparum luciferase reporter growth; series mostly up to 28.7 µM; activity change, negative = inhibition: at the top concentration
Summary of the method: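 Delayed-death screen, second-generation endpoint: infected erythrocytes, 2% hematocrit, 0.05% parasitemia final; 96 hours at 37 C, 5% CO2; luciferase detection reagent; luminescence decrease equals reduced growth.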
In the case of `CCC(=O)N1CCc2cc(S(=O)(=O)NCCC(=O)N3CCN(c4cccc(OC)c4)CC3)ccc21`, the Potency is reported as inconclusive: 20.8 µM [inhibitor, partial curve, poor fit]. With `Cn1cnc([N+](=O)[O-])c1SCCO` the Potency was inconclusive: 4.15 µM [inhibitor, partial curve, poor fit]. For `CCCSc1nnc(-c2c[nH]c3ccccc23)n1C`, the Potency was inconclusive: 18.5 µM [inhibitor, single point]. In the case of `COc1cc(NS(=O)(=O)c2ccc(C)cc2)ccc1-n1cnnn1`, the “activity change, negative = inhibition” value is reported as inactive: 0.75%. For `COc1ccc(NS(=O)(=O)c2ccc(C(=O)N3CCN(Cc4ccccc4)CC3)cc2)cc1`, the Potency was inconclusive: 3.7 µM [inhibitor, partial curve, poor fit]. In the case of `Cc1ccc(-c2ccnc3[nH]n(-c4ccccc4)c(=O)c23)cc1`, the Potency is reported as inconclusive: 18.5 µM [inhibitor, single point]. With `Cn1c(SCc2ccc(Cl)cc2)nnc1-c1ccc2nonc2c1` the “activity change, negative = inhibition” value was inactive: -0.763%. With `CCOC(=O)C1=C(CSc2nccn2C)NC(=O)NC1c1ccc2c(c1)OCO2` (stereo not drawn) the Potency was inconclusive: 10.4 µM [inhibitor, partial curve]. In the case of `COc1cc2c(cc1OC)CN(C(=O)/C=C/c1ccccc1[N+](=O)[O-])CC2`, the Potency is reported as inconclusive: 2.08 µM [inhibitor, full curve]. For `COCCn1c(=NC(=O)c2cccs2)sc2cc(NC(C)=O)ccc21`, the “activity change, negative = inhibition” value was inactive: 55%. In the case of `Cc1cc(C)nc(NS(=O)(=O)c2ccc(NC(=O)c3ccc(S(=O)(=O)N4CCOCC4)cc3)cc2)n1`, the Potency is reported as inconclusive: 10.4 µM [inhibitor, single point]. With `Cc1ccc(OCc2cc(C(=O)NCCn3cccn3)no2)cc1C` the Potency was inconclusive: 0.0294 µM [inhibitor, full curve]. In the case of `CCCCc1cn(C[C@H]2CC[C@@H]([C@@H]3CC[C@H](Cn4cc(CCCC)nn4)O3)O2)nn1`, the Potency is reported as inconclusive: 0.131 µM [inhibitor, full curve, poor fit]. In the case of `CCCC1=C(C(=O)OCC)C(c2c(C)nn(-c3ccccc3)c2Cl)C(C#N)=C(N)O1` (stereo not drawn), the Potency is reported as inconclusive: 8.28 µM [inhibitor, partial curve, poor fit]. With `Cn1c(SCC(=O)N/N=C/c2cccs2)nc2ccccc21` the “activity change, negative = inhibition” value was inactive: 14.5%. For `Cc1nnc(NC(=O)C2CSC3(C)CCC(=O)N23)s1` (stereo not drawn), the Potency was inconclusive: 20.8 µM [inhibitor, partial curve, poor fit]. For `CC(/C=C/C=C/c1ccccc1)=N/NC(=O)CNc1ccc(C)cc1`, the Potency was inconclusive: 10.4 µM [inhibitor, single point]. In the case of `CCOc1ccc(/C=c2\sc3nc(-c4ccco4)nn3c2=O)cc1OCC`, the Potency is reported as inconclusive: 18.5 µM [inhibitor, single point].
